Laboratory results taken from paper PMC5078803.

Amino acid sequences for entries named in this document (tags omitted). A change or cut given only in a name is not applied to a line headed by its entry.
UniProt Q386R9: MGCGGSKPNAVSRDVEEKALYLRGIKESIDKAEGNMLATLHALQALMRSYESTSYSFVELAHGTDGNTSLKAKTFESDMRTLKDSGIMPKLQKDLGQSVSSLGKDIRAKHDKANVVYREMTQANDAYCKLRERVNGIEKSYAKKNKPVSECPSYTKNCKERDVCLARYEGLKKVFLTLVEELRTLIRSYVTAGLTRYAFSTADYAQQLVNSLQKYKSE
UniProt Q382I7: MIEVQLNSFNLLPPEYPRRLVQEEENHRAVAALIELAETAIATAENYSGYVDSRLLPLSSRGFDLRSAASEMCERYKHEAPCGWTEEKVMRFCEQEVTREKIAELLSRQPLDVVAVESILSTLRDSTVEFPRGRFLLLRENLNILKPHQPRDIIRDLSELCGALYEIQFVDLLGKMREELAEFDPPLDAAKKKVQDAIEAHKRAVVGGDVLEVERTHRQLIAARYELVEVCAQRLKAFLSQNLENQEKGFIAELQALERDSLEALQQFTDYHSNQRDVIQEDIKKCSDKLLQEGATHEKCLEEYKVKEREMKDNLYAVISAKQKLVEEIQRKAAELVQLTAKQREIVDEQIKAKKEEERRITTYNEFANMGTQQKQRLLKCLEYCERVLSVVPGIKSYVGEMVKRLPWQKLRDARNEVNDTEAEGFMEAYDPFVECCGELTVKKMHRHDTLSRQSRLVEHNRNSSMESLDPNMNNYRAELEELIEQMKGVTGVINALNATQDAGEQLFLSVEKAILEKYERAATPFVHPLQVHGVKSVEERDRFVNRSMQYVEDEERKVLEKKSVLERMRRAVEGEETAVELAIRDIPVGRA

Target: TbFlabarin-like (TbFlabarinL, Tb927.11.2400) (Trypanosoma brucei (endogenous in BSF cells)) (UniProt Q386R9)
Assay: affinity purification with mass spectrometry; polyclonal anti-TbFlabarinL antibody on protein G Sepharose beads; lysates of WT and ∆TbFlabarinL (control) BSF cells, four biological replicates each; IP buffer 150 mM NaCl, 20 mM Tris-HCl pH 8, 10 mM MgCl2, 0.25% IGEPAL, 1 mM DTT; overnight, 4 °C; label-free quantitative mass spectrometry

Question: How did the binding turn out when “PAR1 (Tb927.11.13500), paraflagellar rod component (from UniProt Q382I7)” was run?
Answer: binds

No constants are given. Whether binding was seen depends on the method and setting. Binding seen in cells or lysates may run through a third protein. A yes stands for co-enrichment or nearness to the bait. Other partners may have been found.
